The target of the assay is T1, GST fusion protein of the RUN domain of mouse Plekhm1 (mouse) (UniProt Q7TSI1).
T1 sequence: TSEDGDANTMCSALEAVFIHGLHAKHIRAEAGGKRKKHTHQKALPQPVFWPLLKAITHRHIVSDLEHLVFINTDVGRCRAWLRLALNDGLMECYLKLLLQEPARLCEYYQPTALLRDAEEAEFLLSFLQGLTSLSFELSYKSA
The assay can be described thus: affinity purification with mass spectrometry; 2 µg GST or GST fusion protein on glutathione beads, 2 mg mature osteoclast lysate, 2 hours at 4°C, IP buffer (20 mM Hepes pH 7.4, 120 mM NaCl, 5% glycerol, 0.5 mM EDTA, 0.2% NP-40); Coomassie blue staining and mass spectrometry of the band; only the target purified.

Among the data in PMC3207863 are binding values, retold here.

No constants are given. Whether binding was seen depends on the method and setting. Binding seen in cells or lysates may run through a third protein. Here binding means that the protein was enriched with, or labelled near, the bait; the list need not be complete. Sequences can lack the tags named with a protein.

B1: LIS1 (PAFAH1b1, platelet-activating factor acetylhydrolase isoform 1b subunit 1), endogenous (protein, UniProt P63005 1-410)
chain: MVLSQRQRDELNRAIADYLRSNGYEEAYSVFKKEAELDMNEELDKKYAGLLEKKWTSVIRLQKKVMELESKLNEAKEEFTSGGPLGQKRDPKEWIPRPPEKYALSGHRSPVTRVIFHPVFSVMVSASEDATIKVWDYETGDFERTLKGHTDSVQDISFDHSGKLLASCSADMTIKLWDFQGFECIRTMHGHDHNVSSVAIMPNGDHIVSASRDKTIKMWEVQTGYCVKTFTGHREWVRMVRPNQDGTLIASCSNDQTVRVWVVATKECKAELREHEHVVECISWAPESSYSSISEATGSETKKSGKPGPFLLSGSRDKTIKMWDVSTGMCLMTLVGHDNWVRGVLFHSGGKFILSCADDKTLRVWDYKNKRCMKTLNAHEHFVTSLDFHKTAPYVVTGSVDQTVKVWECR
On to B1, for which the binding result is “binds”.
